PubChem BioAssay AID504834 (National Center for Advancing Translational Sciences (NCATS), 2011)
Screen size: about 320,000 compounds; about 22,000 (6.9%) were called active. Inconclusive means that the source gave no clear call. Such entries were picked first, then a sample of the others. Calls come from the whole dose curve; as a rule, active = well fitted inhibition curve with a large enough effect; inconclusive = small, poorly fitted or top-dose-only effect, or another doubt; inactive = no such curve, though single readings can be large or run the other way. A potency beside an inconclusive call is a rough fit, not a confirmed value.

Assay: Primary qHTS for delayed death inhibitors of the malarial parasite plastid, 96 hour incubation
Settings: P. falciparum luciferase reporter growth; series mostly up to 28.7 µM
How it was run: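 Erythrocytes infected with luciferase-expressing P. falciparum were dispensed at 2% hematocrit and 0.05% parasitemia (final), then incubated with compounds 96 hours at 37 C in 5% CO2. Luminescence after detection reagent addition reported growth.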
Potency is the fitted concentration of half-maximal effect.

SMILES	Potency
O=C(COC(=O)C1CC2CCCC(C1)C2=O)NNC(=O)c1ccccc1F (centres undefined)	inactive
CCNC(=S)Nc1scc(-c2ccccc2)c1C(=O)OCC	inactive
Cc1ccc2nc(-c3ccccc3)cc(C(=O)NCC(c3ccco3)N(C)C)c2c1 (centres undefined)	inconclusive: 18.5 µM [inhibitor, single point]
O=C(c1ccc2snnc2c1)N1CCCC1	inconclusive: 2.94 µM [inhibitor, full curve, poor fit]
CCC(C)Sc1nc2c(c(=O)[nH]c(=O)n2C)n1CC(O)COc1ccccc1C (centres undefined)	inconclusive: 18.5 µM [inhibitor, single point]
c1ccc(Oc2cc(-c3ccccc3)nc(-c3ccccc3)n2)cc1	inconclusive: 10.4 µM [inhibitor, partial curve, poor fit]
COc1ccc(C(=O)Nc2cc3c4c(c2)CC(=O)N4CCC3)c(OC)c1	inactive
COc1cc2ncnc(Nc3ccc4c(c3)OCO4)c2cc1OC	inconclusive: 18.5 µM [inhibitor, single point]
O=C(/C=C/c1ccco1)N1CCN(S(=O)(=O)/C=C/c2ccccc2)CC1	inconclusive: 5.86 µM [inhibitor, partial curve, poor fit]
CCOc1ccc(S(=O)(=O)N2CCCC(C(=O)NCC3CCCO3)C2)cc1Cl (centres undefined)	inconclusive: 18.5 µM [inhibitor, single point]
COCCCN(Cc1ccco1)C(=O)Cn1ncc2c(=O)oc3ccc(C)cc3c21	inactive
Clc1ccc2c(c1)C=Nc1c(NCc3ccccc3)ncnc1O2	inactive
COc1ccc(NS(=O)(=O)c2cccc(-c3nnc(-c4ccccc4)o3)c2)cc1	inconclusive: 9.28 µM [inhibitor, partial curve, poor fit]
CCN(CC)S(=O)(=O)c1cc(OC)c(Cl)cc1OC	inactive
COc1ccc(NC(=O)CCS(=O)(=O)c2ccc3c(c2)oc(=O)n3C)cc1OC	inconclusive: 10.4 µM [inhibitor, single point]
Cn1c(=O)c2c(nc(CN3CCN(c4ccccc4)CC3)n2Cc2c(F)cccc2Cl)n(C)c1=O	active: 5.22 µM
CC1CCN(CC(O)COc2ccc(OCC(O)CN3CCC(C)CC3)cc2)CC1 (centres undefined)	inconclusive: 18.5 µM [inhibitor, single point]
C[C@@H](C(=O)CC(=O)OC(C)(C)C)[C@@H](O)c1c(F)cccc1Cl	inactive
NNC(=O)c1cc2sccc2s1	inactive
O=C(NCc1ccccc1)N1CCN(c2ccccc2F)CC1	inactive
O=C1CCC(C(=O)N2CCC(CO)(Cc3ccc(Cl)cc3)CC2)=NN1	inactive
Cc1cc(C)nc(SCC(=O)N2CCCCC2)n1	inconclusive: 18.5 µM [inhibitor, single point]
O=C(CN1CCN(c2ccccn2)CC1)Nc1cccc(S(=O)(=O)N2CCOCC2)c1	inconclusive: 6.57 µM [inhibitor, partial curve]
Cc1cccn2c(=O)c(/C=C(\C#N)S(=O)(=O)c3ccccc3)c(N3CCCCC3)nc12	inconclusive: 9.28 µM [inhibitor, partial curve, poor fit]
COc1cc2c(cc1OC)C(c1ccccc1)CN(C)CC2 (centres undefined)	active: 15.1 µM

SMILES	Potency
COc1cccc(CN2CCN(C3CCN(c4ccccc4F)CC3)CC2CCO)c1 (centres undefined)	inconclusive: 9.28 µM [inhibitor, single point]
CCN(CC)S(=O)(=O)c1cc(C(=O)Nc2cc(Cl)ccc2N2CCN(C)CC2)ccc1Cl	active: 2.62 µM
Cc1nc(N2CCOCC2)c2c(C)c(C(=O)Nc3ccc(F)cc3Cl)sc2n1	inconclusive: 16.5 µM [inhibitor, single point]
COc1ccc(N2CCN(S(=O)(=O)CCNC(=O)c3cc(=O)c4ccccc4o3)CC2)cc1	inconclusive: 5.22 µM [inhibitor, single point]
CCCN(C(=O)CCNC(=O)c1ccc(Cl)cc1)c1c(N)n(Cc2ccccc2)c(=O)[nH]c1=O	inactive
COc1cc(OC)cc(C(=O)NC2CC3CCC(C2)N3C)c1 (centres undefined)	inconclusive: 18.5 µM [inhibitor, single point]
CN(c1ccccc1)S(=O)(=O)c1cccc(C(=O)NNC(=O)c2ccccc2)c1	inactive
Oc1ccc(-c2nnc(SCC3CCCCC3)o2)cc1	inconclusive: 0.0029 µM [inhibitor, full curve, poor fit]
C=CCN1C(C(=O)c2ccccc2)=C(OC(=O)COc2ccccc2)c2ccccc2S1(=O)=O	inconclusive: 18.5 µM [inhibitor, single point]
CSCCC(=O)Nc1nc(-c2ccccn2)cs1	inconclusive: 10.4 µM [inhibitor, single point]
O=C(Nc1ccc(S(=O)(=O)N2CCOCC2)cc1)c1ccc2ncsc2c1	inconclusive: 8.28 µM [inhibitor, partial curve]
COCCn1c(NCc2ccccc2)nc2c1c(=O)[nH]c(=O)n2C	inconclusive: 18.5 µM [inhibitor, single point]
Cc1cc(C(C)(C)C)cc(C)c1COC(=O)c1cccnc1	inconclusive: 10.4 µM [inhibitor, partial curve]
CCCN(CC(=O)Nc1ccccc1C)C(=O)Cc1coc2cc(C)ccc12	inactive
CC1=NNC(=O)C1CCC(=O)N/N=C/c1ccc(Cl)cc1Cl (centres undefined)	inactive
COc1ccc(OC)c2sc(NC(=O)C3CC3)nc12	inactive
Cc1cc(C)c(S(=O)(=O)N2CCCC(C(=O)NCc3ccccn3)C2)c(C)c1 (centres undefined)	inactive
N#C/C(=C\c1ccc(OC(=O)c2ccccn2)cc1)C(N)=O	inactive
Clc1ccc2c(N/N=C/c3ccccc3Br)ccnc2c1	active: 0.522 µM
O=C(NCC(F)(F)F)Nc1nnc(C(F)(F)F)s1	inconclusive: 2.62 µM [inhibitor, single point]
C=CCNC(=O)c1ccc([N+](=O)[O-])c(Cl)c1	inconclusive: 20.8 µM [inhibitor, single point]
Cc1cc(C(=O)NNC(=O)c2ccc(C(F)(F)F)cc2)no1	inactive
CCn1cc(C(=O)NCC2CCCO2)c(=O)c2cc(S(=O)(=O)N3CCCCCC3)ccc21 (centres undefined)	inconclusive: 14.7 µM [inhibitor, single point]
COc1ccccc1/C=N/NC(=O)c1sc(C)nc1C	inconclusive: 0.0928 µM [inhibitor, full curve, poor fit]
CCOc1ccccc1N(C(=O)CNC(=O)c1ccco1)C(C(=O)NC1CCCC1)c1ccncc1 (centres undefined)	inconclusive: 8.28 µM [inhibitor, partial curve]

SMILES	Potency
Nc1ncnc(Sc2ccccc2)c1[N+](=O)[O-]	active: 9.28 µM
CC1CCCCN1CCNC(=O)CCc1nnc2n(Cc3ccccc3)c(=O)c3ccccc3n12 (centres undefined)	inconclusive: 8.28 µM [inhibitor, partial curve]
CCOC(=O)/C=c1\s/c(=C\c2ccccc2OC)c(=O)n1CC(=O)N1CCOCC1	inconclusive: 18.5 µM [inhibitor, single point]
CC(=O)c1cccc(NC(=O)N[C@@H](CC(C)C)C(=O)O)c1	inconclusive: 2.62 µM [inhibitor, single point]
O=c1c2ccccc2ccc2ccc(P(=O)(O)O)cc12	inconclusive: 2.62 µM [inhibitor, single point]
CC(OC(=O)CC1CCCCC1)C(=O)Nc1ccc(F)cc1 (centres undefined)	inactive
O=C1CCC/C1=C/Nc1cccc(F)c1	inactive
CN(C)S(=O)(=O)c1cccc(CNCC2COc3ccccc3O2)c1 (centres undefined)	inactive
CCc1c(C)sc(NC(=O)CC#N)c1C#N	active: 0.828 µM
O=C(/C=C/c1ccc(S(=O)(=O)N2CCOCC2)cc1)NCc1ccccc1F	inconclusive: 18.5 µM [inhibitor, single point]
COc1ccc(/C(C)=N/NC(=O)c2ccc(N(C)C)cc2)cc1	active: 0.586 µM
COc1cccc(N=c2oc3c(C)ncc(CO)c3cc2C(=O)Nc2ccccc2OC)c1	inconclusive: 0.37 µM [inhibitor, partial curve, poor fit]
CCc1ccc(NC(=O)c2cc(C(C)C)on2)cc1	inactive
CCOc1nnc(C)c2c(C)n(-c3cccc(OC)c3)nc12	inconclusive: 10.4 µM [inhibitor, single point]
COc1ccc(-n2c(-c3ccc(Br)cc3)nc(=S)c3c2CCCC3)cc1	inconclusive: 11.7 µM [inhibitor, single point]
COc1ccccc1CCc1nnc(CCC(=O)NCC(C)Oc2cccnc2)o1 (centres undefined)	active: 16.5 µM
Cc1ccc(NC(=O)CN2C(=O)CSc3ccc(S(=O)(=O)N4CCCCC4)cc32)cc1	inactive
O=C(NN=C1CCCCC1)Nc1ccccc1Cl	inconclusive: 13.1 µM [inhibitor, single point]
Cc1ccc(S(=O)(=O)Nc2ccc3nc(C)sc3c2)c(C)c1	inconclusive: 18.5 µM [inhibitor, single point]
COc1ccccc1NC(=O)C(C)Sc1nc(-c2ccccc2)cn1N (centres undefined)	inactive
CC(=O)Oc1ccc(-n2c(=O)c3ccccc3c3ccccc3c2=O)cc1	inconclusive: 0.465 µM [inhibitor, full curve, poor fit]
Cc1cnc(C(=O)Nc2ccc(OC(F)(F)F)cc2)cn1	inconclusive: 14.7 µM [inhibitor, single point]
CCOC(=O)c1c(NC(=O)C(NCCN(C)C)c2ccccc2)sc2c1CCCC2 (centres undefined)	inconclusive: 5.22 µM [inhibitor, partial curve]
CCOc1cc(NC(=O)c2cnccn2)c(OCC)cc1NC(=O)c1cccc(F)c1	inactive

A draw from above in order of molar mass, low to high.
SMILES	Potency
CC(=O)c1cccc(NC(=O)N[C@@H](CC(C)C)C(=O)O)c1	inconclusive: 2.62 µM [inhibitor, single point]
CC(OC(=O)CC1CCCCC1)C(=O)Nc1ccc(F)cc1 (centres undefined)	inactive
COc1ccc(/C(C)=N/NC(=O)c2ccc(N(C)C)cc2)cc1	active: 0.586 µM
Cc1ccc(S(=O)(=O)Nc2ccc3nc(C)sc3c2)c(C)c1	inconclusive: 18.5 µM [inhibitor, single point]
